Test results as given in the supplement of paper PMC11732987, “Enantioselective OTUD7B fragment discovery through chemoproteomics screening and high-throughput optimisation” (Communications Chemistry, 2025).
The other results are listed elsewhere or left out. The data scatter; read single values as rough.

By UniProt entry, the sequences of proteins in these tests, tags left out. Where a name states a change or a piece, a line headed by the entry shows the natural chain unless it says otherwise. Residues count along the entry.
UniProt Q9Y3A5: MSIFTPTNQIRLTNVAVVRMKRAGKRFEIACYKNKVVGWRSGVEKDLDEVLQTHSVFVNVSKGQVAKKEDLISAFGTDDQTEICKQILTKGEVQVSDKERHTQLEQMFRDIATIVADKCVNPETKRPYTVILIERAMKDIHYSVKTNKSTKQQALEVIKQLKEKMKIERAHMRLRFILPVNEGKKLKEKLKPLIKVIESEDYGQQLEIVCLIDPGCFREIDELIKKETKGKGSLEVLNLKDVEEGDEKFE
UniProt Q99963: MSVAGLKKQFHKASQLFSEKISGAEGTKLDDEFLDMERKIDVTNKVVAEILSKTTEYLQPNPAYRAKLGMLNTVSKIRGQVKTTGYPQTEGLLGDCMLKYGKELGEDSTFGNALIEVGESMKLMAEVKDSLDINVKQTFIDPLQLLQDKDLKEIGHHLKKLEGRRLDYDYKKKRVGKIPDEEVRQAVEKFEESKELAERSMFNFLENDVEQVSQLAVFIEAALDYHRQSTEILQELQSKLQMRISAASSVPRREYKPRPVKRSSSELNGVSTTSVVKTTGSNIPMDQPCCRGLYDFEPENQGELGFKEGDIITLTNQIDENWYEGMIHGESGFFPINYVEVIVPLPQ
UniProt Q96EB6: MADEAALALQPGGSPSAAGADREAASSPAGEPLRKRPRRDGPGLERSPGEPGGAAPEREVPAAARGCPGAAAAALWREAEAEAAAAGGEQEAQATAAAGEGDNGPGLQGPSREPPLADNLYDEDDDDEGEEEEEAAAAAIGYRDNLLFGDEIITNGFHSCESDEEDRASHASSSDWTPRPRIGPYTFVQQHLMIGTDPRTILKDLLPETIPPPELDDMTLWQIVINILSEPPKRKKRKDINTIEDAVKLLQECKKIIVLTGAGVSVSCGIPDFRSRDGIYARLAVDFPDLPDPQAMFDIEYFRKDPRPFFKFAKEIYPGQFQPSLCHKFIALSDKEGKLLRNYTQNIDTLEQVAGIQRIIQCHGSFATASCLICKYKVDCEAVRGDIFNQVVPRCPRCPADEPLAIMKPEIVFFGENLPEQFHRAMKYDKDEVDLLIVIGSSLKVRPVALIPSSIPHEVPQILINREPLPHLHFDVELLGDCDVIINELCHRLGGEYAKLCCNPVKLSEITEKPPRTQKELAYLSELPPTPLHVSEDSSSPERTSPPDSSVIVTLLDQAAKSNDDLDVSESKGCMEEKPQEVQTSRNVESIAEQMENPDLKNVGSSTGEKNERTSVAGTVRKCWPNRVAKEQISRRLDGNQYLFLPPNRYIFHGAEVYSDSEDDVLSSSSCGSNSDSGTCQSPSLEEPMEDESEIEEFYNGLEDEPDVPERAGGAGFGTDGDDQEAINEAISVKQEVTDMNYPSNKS
UniProt Q96EE3: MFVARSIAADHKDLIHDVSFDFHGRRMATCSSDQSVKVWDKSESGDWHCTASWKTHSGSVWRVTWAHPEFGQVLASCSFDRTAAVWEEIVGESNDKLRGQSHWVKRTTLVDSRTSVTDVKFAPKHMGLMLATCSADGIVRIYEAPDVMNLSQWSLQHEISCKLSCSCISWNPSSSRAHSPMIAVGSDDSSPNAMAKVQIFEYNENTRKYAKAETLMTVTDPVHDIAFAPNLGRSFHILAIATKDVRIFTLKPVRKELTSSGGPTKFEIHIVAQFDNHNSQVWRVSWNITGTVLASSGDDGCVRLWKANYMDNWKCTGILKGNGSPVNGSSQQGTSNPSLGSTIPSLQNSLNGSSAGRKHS
UniProt Q8N196: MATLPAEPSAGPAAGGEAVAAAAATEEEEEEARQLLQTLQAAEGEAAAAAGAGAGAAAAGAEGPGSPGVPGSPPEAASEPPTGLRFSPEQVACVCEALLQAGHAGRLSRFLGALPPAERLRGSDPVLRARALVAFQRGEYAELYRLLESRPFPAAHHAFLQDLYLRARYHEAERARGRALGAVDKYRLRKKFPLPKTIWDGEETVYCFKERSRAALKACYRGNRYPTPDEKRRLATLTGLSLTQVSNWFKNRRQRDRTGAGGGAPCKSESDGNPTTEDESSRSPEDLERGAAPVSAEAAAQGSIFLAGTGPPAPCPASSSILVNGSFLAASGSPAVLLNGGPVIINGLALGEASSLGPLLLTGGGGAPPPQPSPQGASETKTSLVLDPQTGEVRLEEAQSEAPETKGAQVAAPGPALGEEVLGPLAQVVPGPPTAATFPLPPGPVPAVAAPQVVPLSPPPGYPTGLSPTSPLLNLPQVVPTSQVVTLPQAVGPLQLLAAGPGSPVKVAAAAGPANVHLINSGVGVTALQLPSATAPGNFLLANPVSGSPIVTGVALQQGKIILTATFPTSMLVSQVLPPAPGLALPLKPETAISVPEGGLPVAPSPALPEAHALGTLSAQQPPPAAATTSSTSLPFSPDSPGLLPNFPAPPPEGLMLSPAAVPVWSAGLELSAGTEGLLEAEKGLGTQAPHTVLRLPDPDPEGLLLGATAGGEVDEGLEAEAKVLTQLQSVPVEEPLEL
UniProt Q96HI0: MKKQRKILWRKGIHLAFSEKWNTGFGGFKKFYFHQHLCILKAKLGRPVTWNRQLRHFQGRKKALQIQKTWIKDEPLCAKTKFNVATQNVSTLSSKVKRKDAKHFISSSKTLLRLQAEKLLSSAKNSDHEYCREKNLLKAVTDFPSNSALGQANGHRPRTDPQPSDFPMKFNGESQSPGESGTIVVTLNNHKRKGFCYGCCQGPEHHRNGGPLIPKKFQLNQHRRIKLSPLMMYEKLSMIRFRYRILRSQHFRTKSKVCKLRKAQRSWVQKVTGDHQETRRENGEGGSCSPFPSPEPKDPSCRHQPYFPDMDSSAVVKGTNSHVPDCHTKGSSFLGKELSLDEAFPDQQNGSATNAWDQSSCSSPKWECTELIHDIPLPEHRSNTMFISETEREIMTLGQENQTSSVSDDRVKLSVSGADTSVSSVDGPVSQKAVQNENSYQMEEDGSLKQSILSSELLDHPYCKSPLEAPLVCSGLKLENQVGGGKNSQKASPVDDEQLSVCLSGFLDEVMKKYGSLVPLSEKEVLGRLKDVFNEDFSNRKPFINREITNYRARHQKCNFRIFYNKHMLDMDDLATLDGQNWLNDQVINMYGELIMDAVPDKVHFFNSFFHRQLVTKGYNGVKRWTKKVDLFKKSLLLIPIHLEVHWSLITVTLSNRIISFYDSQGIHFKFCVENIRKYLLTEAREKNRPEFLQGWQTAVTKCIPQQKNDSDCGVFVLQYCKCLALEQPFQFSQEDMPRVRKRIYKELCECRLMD
UniProt Q9BX95: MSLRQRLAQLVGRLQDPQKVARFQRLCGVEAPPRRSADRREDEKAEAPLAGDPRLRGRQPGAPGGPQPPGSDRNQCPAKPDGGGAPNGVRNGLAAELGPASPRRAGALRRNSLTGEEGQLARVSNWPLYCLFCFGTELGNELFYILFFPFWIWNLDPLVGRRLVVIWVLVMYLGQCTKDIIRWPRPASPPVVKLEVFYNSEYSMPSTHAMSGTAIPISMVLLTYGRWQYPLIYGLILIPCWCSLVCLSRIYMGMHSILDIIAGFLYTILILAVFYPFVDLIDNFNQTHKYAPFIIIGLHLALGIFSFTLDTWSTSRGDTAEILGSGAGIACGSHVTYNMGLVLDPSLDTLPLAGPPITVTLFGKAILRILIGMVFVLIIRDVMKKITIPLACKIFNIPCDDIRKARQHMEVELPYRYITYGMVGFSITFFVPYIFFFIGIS
UniProt Q9Y2G9: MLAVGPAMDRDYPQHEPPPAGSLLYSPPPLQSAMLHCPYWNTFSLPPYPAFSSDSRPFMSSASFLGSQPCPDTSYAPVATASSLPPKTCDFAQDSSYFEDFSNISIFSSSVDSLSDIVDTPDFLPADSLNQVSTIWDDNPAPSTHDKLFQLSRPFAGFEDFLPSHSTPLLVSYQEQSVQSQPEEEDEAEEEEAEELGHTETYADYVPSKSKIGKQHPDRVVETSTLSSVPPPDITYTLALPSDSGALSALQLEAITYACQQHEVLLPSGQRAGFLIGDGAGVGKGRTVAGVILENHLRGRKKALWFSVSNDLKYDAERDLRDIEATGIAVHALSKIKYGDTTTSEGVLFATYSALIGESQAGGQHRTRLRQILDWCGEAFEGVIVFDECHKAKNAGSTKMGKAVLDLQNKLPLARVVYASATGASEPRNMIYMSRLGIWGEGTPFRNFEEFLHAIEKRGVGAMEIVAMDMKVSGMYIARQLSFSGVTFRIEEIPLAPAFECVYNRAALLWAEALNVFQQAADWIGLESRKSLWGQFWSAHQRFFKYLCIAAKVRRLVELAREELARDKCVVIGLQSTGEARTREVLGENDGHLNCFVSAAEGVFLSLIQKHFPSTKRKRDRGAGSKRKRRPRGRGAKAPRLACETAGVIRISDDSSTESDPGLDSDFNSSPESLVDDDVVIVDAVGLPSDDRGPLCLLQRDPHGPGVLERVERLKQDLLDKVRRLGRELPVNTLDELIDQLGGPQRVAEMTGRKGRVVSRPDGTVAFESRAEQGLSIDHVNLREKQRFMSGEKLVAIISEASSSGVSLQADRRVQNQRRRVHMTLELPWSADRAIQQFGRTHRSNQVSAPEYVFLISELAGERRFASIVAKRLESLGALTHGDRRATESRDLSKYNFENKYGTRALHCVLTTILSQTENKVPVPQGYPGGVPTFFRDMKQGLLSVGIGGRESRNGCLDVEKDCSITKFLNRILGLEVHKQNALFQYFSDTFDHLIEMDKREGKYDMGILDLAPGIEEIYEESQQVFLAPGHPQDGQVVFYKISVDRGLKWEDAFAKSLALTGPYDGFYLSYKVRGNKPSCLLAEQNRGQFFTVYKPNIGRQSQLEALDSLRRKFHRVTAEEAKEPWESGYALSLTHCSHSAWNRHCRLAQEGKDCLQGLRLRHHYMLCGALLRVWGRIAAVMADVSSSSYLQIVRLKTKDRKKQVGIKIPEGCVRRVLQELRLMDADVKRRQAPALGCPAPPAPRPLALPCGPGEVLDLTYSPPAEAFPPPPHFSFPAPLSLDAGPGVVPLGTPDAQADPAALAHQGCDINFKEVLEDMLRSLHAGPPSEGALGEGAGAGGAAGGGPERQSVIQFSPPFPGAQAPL
UniProt O00560, 230-250: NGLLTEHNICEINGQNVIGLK
UniProt P31040: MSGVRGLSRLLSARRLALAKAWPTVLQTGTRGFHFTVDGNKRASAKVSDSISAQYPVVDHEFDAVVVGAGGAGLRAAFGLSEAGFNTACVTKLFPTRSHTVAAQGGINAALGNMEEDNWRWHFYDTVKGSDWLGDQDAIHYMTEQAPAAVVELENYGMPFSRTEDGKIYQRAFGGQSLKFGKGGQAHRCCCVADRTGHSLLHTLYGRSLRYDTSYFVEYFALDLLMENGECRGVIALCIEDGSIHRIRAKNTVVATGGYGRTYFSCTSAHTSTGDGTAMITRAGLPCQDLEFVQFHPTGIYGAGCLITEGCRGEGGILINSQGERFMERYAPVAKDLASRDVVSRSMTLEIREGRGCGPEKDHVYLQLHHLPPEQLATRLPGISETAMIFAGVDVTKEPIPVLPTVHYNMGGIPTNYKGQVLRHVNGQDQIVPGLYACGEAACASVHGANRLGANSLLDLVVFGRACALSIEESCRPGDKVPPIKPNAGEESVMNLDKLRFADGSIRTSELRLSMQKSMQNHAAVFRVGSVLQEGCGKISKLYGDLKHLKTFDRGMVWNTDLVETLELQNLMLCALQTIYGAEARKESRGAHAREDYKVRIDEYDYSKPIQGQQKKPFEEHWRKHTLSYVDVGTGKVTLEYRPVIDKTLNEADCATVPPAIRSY
UniProt Q9Y3L3: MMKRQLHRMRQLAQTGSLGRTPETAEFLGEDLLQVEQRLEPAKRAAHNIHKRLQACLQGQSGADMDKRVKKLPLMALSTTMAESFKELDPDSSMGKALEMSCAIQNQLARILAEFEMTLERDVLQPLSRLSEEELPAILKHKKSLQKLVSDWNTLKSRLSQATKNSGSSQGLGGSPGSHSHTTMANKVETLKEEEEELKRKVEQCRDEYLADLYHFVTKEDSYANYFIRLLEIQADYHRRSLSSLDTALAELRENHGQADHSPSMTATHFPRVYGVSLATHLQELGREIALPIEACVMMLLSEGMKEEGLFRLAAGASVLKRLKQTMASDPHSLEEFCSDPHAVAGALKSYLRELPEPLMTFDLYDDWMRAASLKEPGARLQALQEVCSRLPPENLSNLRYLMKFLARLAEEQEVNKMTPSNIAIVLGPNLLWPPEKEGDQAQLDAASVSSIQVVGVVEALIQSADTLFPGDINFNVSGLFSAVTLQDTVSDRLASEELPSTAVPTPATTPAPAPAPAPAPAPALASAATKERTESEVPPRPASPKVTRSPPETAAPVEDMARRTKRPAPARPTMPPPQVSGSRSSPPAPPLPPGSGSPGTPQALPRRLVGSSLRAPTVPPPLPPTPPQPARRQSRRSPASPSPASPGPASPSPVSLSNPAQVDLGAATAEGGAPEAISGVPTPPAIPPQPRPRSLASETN

Tests used:
[1] = compound: ClCC(=O)N[C@@H]1CCCc2ccccc12; test: log2 mean competition ratio of IA-DTB cysteine labelling (DMSO/compound) (log2 ratio); higher = stronger cysteine engagement by compound; conditions: treatment time: 4 h, cell line lysate: HEK293T
Experimental: (§1)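 IA-DTB competitive cysteine chemoproteomics in HEK293T RIPA lysate. Lysates were treated with compound 29 or 30 at 50 or 200 µM for 4 h, then IA-DTB (500 µM, 1 h), trypsin-digested, NeutrAvidin-enriched and analysed by diaPASEF. Competition ratio = intensity DMSO / intensity compound (n=4 treated, n=64 DMSO); binding: mean log2 CR ≥ 1 and p ≤ 0.05 plus QC filters. Target is the cysteine site.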

[2] = compound: ClCC(=O)N[C@H]1CCCc2ccccc12; test: as above; conditions: treatment time: 4 h, cell line lysate: HEK293T
Experimental: as §1

Target: SASS6 C444 (UniProt Q6UVJ0)
- log2 mean competition ratio ([1]; 50 µM): -0.0541
- log2 mean competition ratio ([1]; 200 µM): 0.353
- log2 mean competition ratio ([2]; 50 µM): -0.12
- log2 mean competition ratio ([2]; 200 µM): 0.0695

Target: SCYL1 C512 (UniProt Q96KG9)
- log2 mean competition ratio ([1]; 50 µM): -0.0447
- log2 mean competition ratio ([1]; 200 µM): -0.192
- log2 mean competition ratio ([2]; 50 µM): -0.202
- log2 mean competition ratio ([2]; 200 µM): -0.0797

Target: SFSWAP C220 (UniProt Q12872)
- log2 mean competition ratio ([1]; 50 µM): -0.0518
- log2 mean competition ratio ([1]; 200 µM): -0.17
- log2 mean competition ratio ([2]; 50 µM): 0.0956
- log2 mean competition ratio ([2]; 200 µM): -0.0282

Target: SARM1 C482 (UniProt Q6SZW1)
- log2 mean competition ratio ([1]; 50 µM): 0.299
- log2 mean competition ratio ([1]; 200 µM): 0.0392
- log2 mean competition ratio ([2]; 50 µM): -0.0271
- log2 mean competition ratio ([2]; 200 µM): -0.0098

Target: SBDS C119 (UniProt Q9Y3A5)
- log2 mean competition ratio ([1]; 50 µM): 0.000362
- log2 mean competition ratio ([1]; 200 µM): -0.322
- log2 mean competition ratio ([2]; 50 µM): -0.0578
- log2 mean competition ratio ([2]; 200 µM): -0.348

Target: SH3GL3 C96 (UniProt Q99963)
- log2 mean competition ratio ([1]; 50 µM): 0.145
- log2 mean competition ratio ([1]; 200 µM): 0.193
- log2 mean competition ratio ([2]; 50 µM): -0.147
- log2 mean competition ratio ([2]; 200 µM): 0.231

Target: SIRT1 C574 (UniProt Q96EB6)
- log2 mean competition ratio ([1]; 50 µM): -0.0175
- log2 mean competition ratio ([1]; 200 µM): 0.112
- log2 mean competition ratio ([2]; 50 µM): -0.138
- log2 mean competition ratio ([2]; 200 µM): -0.2

Target: SIK3 C333
- log2 mean competition ratio ([1]; 50 µM): -0.164
- log2 mean competition ratio ([1]; 200 µM): 0.107
- log2 mean competition ratio ([2]; 50 µM): -0.16
- log2 mean competition ratio ([2]; 200 µM): 0.00662

Target: SEH1L C30 (UniProt Q96EE3)
- log2 mean competition ratio ([1]; 50 µM): -0.186
- log2 mean competition ratio ([1]; 200 µM): 0.297
- log2 mean competition ratio ([2]; 50 µM): -0.42
- log2 mean competition ratio ([2]; 200 µM): 0.126

Target: SARM1 C311 (UniProt Q6SZW1)
- log2 mean competition ratio ([1]; 50 µM): 0.958
- log2 mean competition ratio ([1]; 200 µM): 0.44
- log2 mean competition ratio ([2]; 50 µM): 0.204
- log2 mean competition ratio ([2]; 200 µM): 0.279

Target: SAE1 C214
- log2 mean competition ratio ([1]; 50 µM): 0.0116
- log2 mean competition ratio ([1]; 200 µM): -0.113
- log2 mean competition ratio ([2]; 50 µM): 0.426
- log2 mean competition ratio ([2]; 200 µM): -0.0842

Target: SENP7 C274 (UniProt Q9BQF6)
- log2 mean competition ratio ([1]; 50 µM): -0.134
- log2 mean competition ratio ([1]; 200 µM): -0.0887
- log2 mean competition ratio ([2]; 50 µM): -0.17
- log2 mean competition ratio ([2]; 200 µM): -0.0221

Target: SBDS C84 (UniProt Q9Y3A5)
- log2 mean competition ratio ([1]; 50 µM): -0.428
- log2 mean competition ratio ([1]; 200 µM): 0.291
- log2 mean competition ratio ([2]; 50 µM): -0.352
- log2 mean competition ratio ([2]; 200 µM): 0.328

Target: SIX5 C266 (UniProt Q8N196)
- log2 mean competition ratio ([1]; 50 µM): -0.0782
- log2 mean competition ratio ([1]; 200 µM): 0.0461
- log2 mean competition ratio ([2]; 50 µM): 0.00381
- log2 mean competition ratio ([2]; 200 µM): 0.225

Target: SENP5 C288 (UniProt Q96HI0)
- log2 mean competition ratio ([1]; 50 µM): -0.16
- log2 mean competition ratio ([1]; 200 µM): 0.302
- log2 mean competition ratio ([2]; 50 µM): -0.552
- log2 mean competition ratio ([2]; 200 µM): -0.000517

Target: SGPP1 C27 (UniProt Q9BX95)
- log2 mean competition ratio ([1]; 50 µM): 0.123
- log2 mean competition ratio ([1]; 200 µM): -0.411
- log2 mean competition ratio ([2]; 50 µM): 0.121
- log2 mean competition ratio ([2]; 200 µM): 0.0519

Target: SBNO2 C643 (UniProt Q9Y2G9)
- log2 mean competition ratio ([1]; 50 µM): 0.122
- log2 mean competition ratio ([1]; 200 µM): -0.145
- log2 mean competition ratio ([2]; 50 µM): 0.453
- log2 mean competition ratio ([2]; 200 µM): 0.21

Target: SDCBP C239 (UniProt O00560)
- log2 mean competition ratio ([1]; 50 µM): 0.0827
- log2 mean competition ratio ([1]; 200 µM): -0.259
- log2 mean competition ratio ([2]; 50 µM): -0.345
- log2 mean competition ratio ([2]; 200 µM): -0.402

Target: SEC31A C1130
- log2 mean competition ratio ([1]; 50 µM): -0.162
- log2 mean competition ratio ([1]; 200 µM): -0.13
- log2 mean competition ratio ([2]; 50 µM): -0.35
- log2 mean competition ratio ([2]; 200 µM): -0.191

Target: SENP6 C379 (UniProt Q9GZR1)
- log2 mean competition ratio ([1]; 50 µM): 0.0889
- log2 mean competition ratio ([1]; 200 µM): 0.185
- log2 mean competition ratio ([2]; 50 µM): -0.0499
- log2 mean competition ratio ([2]; 200 µM): 0.145

Target: SDHA C238 (UniProt P31040)
- log2 mean competition ratio ([1]; 50 µM): -0.264
- log2 mean competition ratio ([1]; 200 µM): 0.185
- log2 mean competition ratio ([2]; 50 µM): -0.305
- log2 mean competition ratio ([2]; 200 µM): -0.178

Target: SH3BP1 C56 (UniProt Q9Y3L3)
- log2 mean competition ratio ([1]; 50 µM): 0.151
- log2 mean competition ratio ([1]; 200 µM): -0.086
- log2 mean competition ratio ([2]; 50 µM): -0.308
- log2 mean competition ratio ([2]; 200 µM): -0.137
